The assay in a line: qHTS Assay to Find Inhibitors of Chronic Active B-Cell Receptor Signaling. To be noted: ABC-DLBCL IkBa-CBG/CBR reporter, luminescence ratio (green luciferase fused to IkBa over red control in TMD8 lymphoma cells), 4 h. In a few lines:
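TMD8 ABC-DLBCL cells carrying doxycycline-inducible green luciferase fused to IkappaBalpha plus unfused red luciferase were exposed to compounds (up to 46 uM) for 4 hrs at 37C. Activity came from the overlap-corrected green/red luminescence ratio.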

The mark [1] stands for this setting: measured here: CBR red luminescence, cell number.
[2] abbreviates: measured here: IkBa-CBG green luminescence.

This is one part of the list. These are further read-outs of the screen, such as a control signal, another cell line or another target. No call is given for them. Compounds called inactive in the main read-out are mostly missing here. Potencies come from curve fits of mixed quality, noted in brackets.

As for `COc1cc(/C=C(/C#N)C(=O)NCc2ccccc2)cc(OC)c1OC`, under setting [1], the AC50 was 5.62 µM [falling, single point].
As to `O=C(O)CN1C(=O)/C(=C\c2ccccc2OCc2ccc(Cl)cc2)SC1=S`, the AC50 under setting [1] was 7.08 µM [rising, partial curve, poor fit].
`O=C(CCl)Nc1c(C(=O)Nc2ccc3c(c2)OCCO3)oc2ccccc12`: the AC50 under setting [1] was 12.6 µM [falling, partial curve].
Take `O=C(/C=C/c1ccccc1)NC(=S)NNC(=O)c1ccco1`: the AC50 under setting [1] was 16.4 µM [falling, single point].
For the compound `Cc1ccc(CNC(=O)c2cc3c(=O)n(C)c4ccccc4c3n2C)cc1`, under setting [1], the AC50 was 2.06 µM [falling, partial curve, poor fit].
With `CCCCCCCNC(=O)C1(CC2CC(c3ccc(Cl)cc3)=NO2)CCN(C(=O)OC(C)(C)C)CC1` (stereo not drawn), under setting [1], the AC50 was 2.51 µM [rising, single point].
As to `CC(C)c1ccc(NC(=O)CSC2=Nc3ccccc3C3=NC(CC(=O)NCc4ccc(F)cc4)C(=O)N23)cc1` (stereo not drawn), the AC50 by setting is: under setting [1], 10 µM [falling, partial curve]; under setting [2], 12.6 µM [rising, partial curve, poor fit].
Consider `Cc1cc(C(=O)NP(=O)(N2CCOCC2)N2CCOCC2)c(C)n1-c1ccc(Br)cc1`, for which, under setting [1], the AC50 is 13 µM [falling, partial curve, poor fit].
As to `COc1ccc(C2=NN(C(=O)CSc3nnc(C)c(=O)n3N)C(c3ccco3)C2)cc1` (stereo not drawn), under setting [1], the AC50 was 17.8 µM [rising, partial curve, poor fit].
In the case of `CN(C)S(=O)(=O)N1CCN(c2ccc(Cl)cc2)CC1`, under setting [1], the AC50 was 14.6 µM [rising, partial curve, poor fit].
Regarding `CC[n+]1c(/C=C/c2cc([N+](=O)[O-])ccc2O)ccc2ccccc21`, under setting [1], the AC50 is 11.2 µM [falling, partial curve, poor fit].
On to `CSc1ccccc1-c1nnc(-c2ccc(Cl)c(Cl)c2)o1`, for which the AC50 under setting [1] is 0.316 µM [rising, full curve, poor fit].
In the case of `O=C(N/N=C/c1ccc([N+](=O)[O-])cc1)c1ccc(NS(=O)(=O)c2cccs2)cc1`, the AC50 under setting [1] is 8.2 µM [falling, partial curve].
With `O=C(COC(=O)CNC(=O)c1cccs1)Nc1ccc(C(F)(F)F)cc1[N+](=O)[O-]`, the AC50 under setting [1] was 25.9 µM [rising, partial curve, poor fit].
Regarding `O=C(NCc1ccccc1Br)c1ccncc1`, the AC50 under setting [1] was 17.8 µM [falling, single point].
For `Brc1ccc(N=Nc2ccc3ccccc3n2)cc1`, under setting [1], the concentration at half-maximal activity (AC50) is 2.51 µM [falling, full curve, poor fit].
As to `CC(C)N(Cc1ccccc1)C(=O)COC(=O)/C=C/c1cnc2ccccc2n1`, the AC50 under setting [1] was 1.26 µM [falling, full curve, poor fit].
As for `CC(C)OC(=O)CSc1nnnn1-c1ccc2c(c1)OCCO2`, under setting [1], the AC50 is 10.3 µM [rising, partial curve].
For the compound `Cc1ccc(C)c(NC(=O)c2ccccn2)c1`, the concentration at half-maximal activity (AC50) under setting [1] is 20.6 µM [rising, single point].
Regarding `Cc1ccc(CSCC(Nc2ccc(C(=O)O)cc2[N+](=O)[O-])C(=O)O)cc1` (stereo not drawn), the AC50 under setting [1] is 23.1 µM [falling, single point].
Consider `COc1cc(C(=O)N2CCN(Cc3ccccn3)CC2)cc(OC)c1OC`, for which the AC50 under setting [1] was 0.891 µM [rising, full curve, poor fit].
On to `COc1cc(OC)c(OC)cc1CN(C)CCc1ccccn1`, for which the AC50 under setting [1] is 4.11 µM [falling, single point].
Regarding `Cc1ccc(SC[C@H](Cc2ccccc2)N2CCN(CC(C)C)CCC2=O)cc1`, under setting [1], the AC50 is 2.24 µM [rising, partial curve, poor fit].
Turning to `CS(=O)(=O)c1ccc(C(=O)Nc2cccc(-c3nc4ccccc4[nH]3)c2)cc1`, the AC50 under setting [1] is 35.5 µM [falling, single point].
Same read-out and setting: next, `CCOC(=O)Cc1cc(=O)[nH]c(Nc2nc3ccccc3o2)n1`: 35.5 µM [falling, single point].
On to `CC(C)CCNC(=O)NC(=O)CSc1nnc(-c2ccccc2F)n1N`, for which the concentration at half-maximal activity (AC50) is, setting by setting: under setting [1], 4.61 µM [falling, single point]; under setting [2], 4.61 µM [rising, partial curve, poor fit].
On to `CN1CCCN(S(=O)(=O)c2ccccc2)c2nc3ccccc3nc21`, for which the AC50 under setting [1] was 29.1 µM [falling, single point].
Take `Cc1ccc(NC(=O)Nc2cccc([N+](=O)[O-])c2)nc1`: the AC50 under setting [1] is 2 µM [rising, full curve, poor fit].
As for `O=C(N/N=C/c1coc2ccccc2c1=O)c1cc(O)cc(O)c1`, the AC50 under setting [1] is 10 µM [falling, partial curve, poor fit].
Take `Cc1noc(C)c1COc1ccccc1C(=O)NCCc1ccccc1`: the AC50 under setting [1] was 6.51 µM [rising, single point].
As for `O=C(c1nnsc1S(=O)(=O)c1ccc(Cl)cc1)N1CCOCC1`, the AC50 under setting [1] is 7.08 µM [falling, full curve] and the AC50 under setting [2] is 7.94 µM [rising, partial curve, poor fit].
Take `COc1ccc(Cn2nnnc2C(CC(C)C)N2CCN(c3ccccc3)CC2)cc1` (stereo not drawn): the AC50 under setting [1] is 4.47 µM [falling, full curve].
Turning to `COc1ccc2c(c1)c(C(=O)OCCN(C)C)c(C)n2C`, the AC50 under setting [1] was 7.31 µM [rising, partial curve, poor fit].
On the same count and under the same terms, next, `Cc1cccc2sc(NC(=O)CSCc3ccccc3)nc12`: 11.6 µM [falling, partial curve, poor fit].
`CNC(=O)c1ccsc1NC(=O)c1ccc(S(=O)(=O)N2CCc3ccccc32)cc1`: the AC50 is 32.6 µM [falling, partial curve, poor fit] under setting [1] and 25.9 µM [rising, partial curve, poor fit] under setting [2].
Turning to `COc1ccc(S(=O)(=O)CC(=O)c2cc3cc(Br)ccc3oc2=O)cc1`, the AC50 under setting [1] was 28.2 µM [falling, single point].
Still for that read-out and setting: next, `COc1ccc(NC(=O)c2ccccc2C)cc1`: 10 µM [falling, partial curve].
As to `Cc1cc(NC(=O)COC(=O)c2ccccc2NCCO)no1`, the AC50 under setting [1] is 16.4 µM [falling, single point].
For the compound `Cc1noc(C)c1COC(=O)c1ccc(F)c(S(=O)(=O)N2CCCCC2)c1`, under setting [1], the AC50 was 10 µM [falling, partial curve].
Regarding `COc1ccc(-c2onc3ccc(Cl)cc23)cc1`, under setting [1], the AC50 was 0.259 µM [rising, full curve, poor fit].
As to `O=C1CN(C(=O)c2ccc(Br)o2)C(c2ccc(F)cc2)c2cc(F)ccc2N1` (stereo not drawn), under setting [1], the AC50 is 20.6 µM [falling, single point].
Take `O=C(Nc1nc(=O)[nH]s1)c1ccccc1`: the AC50 under setting [1] is 35.5 µM [falling, single point].
For `O=C(Nc1ccc2c(c1)COC2=O)c1ccc(Cl)c(Cl)c1`, the AC50 under setting [1] was 0.112 µM [rising, full curve, poor fit].
As for `COc1ccc(S(=O)(=O)N2CCOCC2)c(C)c1C`, the AC50 is 20.6 µM [rising, partial curve, poor fit] under setting [1] and 8.2 µM [falling, partial curve, poor fit] under setting [2].
As for `Cc1ccc(N(CC(=O)N/N=C/c2ccc(OC3CSC3)cc2)S(=O)(=O)c2ccccc2)c(C)c1`, the AC50 under setting [1] was 18.4 µM [rising, partial curve, poor fit].
Take `OCCN1CCN(c2nc(-c3ccccc3)nc3c2oc2ccccc23)CC1`: under setting [1], the AC50 was 35.5 µM [falling, single point].
Take `O=C(Nc1ccc(Br)cn1)c1ccc2ccccc2c1`: the AC50 under setting [1] is 10 µM [falling, partial curve, poor fit].
For the compound `CSc1nc(C)c(CCOC(=O)c2ccccc2)c(=O)[nH]1`, under setting [1], the AC50 is 1.41 µM [rising, full curve, poor fit].
`CCOc1ccc2nc(-c3ccccc3)[nH]c2c1`: under setting [1], the AC50 is 10 µM [falling, partial curve].
Turning to `COC(=O)c1ccc(COc2ccccc2/C=N/NS(=O)(=O)c2ccccc2)cc1`, the AC50 under setting [2] was 35.5 µM [falling, single point].
As for `Cn1c(CCN2CCCCC2)nc2cc(NS(=O)(=O)c3ccc(F)cc3)ccc21`, the AC50 under setting [1] was 22.4 µM [falling, single point].
In the case of `Cc1cccc(C(=O)Nc2oc(-c3ccccc3)cc2C#N)c1`, the AC50 under setting [1] is 15.8 µM [rising, partial curve, poor fit].
On to `CC(=O)c1c(C)[nH]c(=S)c(C#N)c1-c1ccc(Cl)cc1`, for which the AC50 under setting [1] was 5.01 µM [rising, partial curve, poor fit].
`Cc1nnc(SCC(=O)NC(C)(C)C)n1CCc1ccccc1`: the AC50 under setting [1] is 13 µM [rising, partial curve, poor fit].
As for `CCN(CC)C(=O)c1sc2nc(N3CCOCC3)c3c(c2c1N)CCCC3`, the AC50 under setting [1] was 29.1 µM [falling, single point].
As to `O=C(CC(Nc1cccc(Cl)c1Cl)C(=O)OCC(=O)c1cccs1)c1ccccc1` (stereo not drawn), the AC50 under setting [1] is 1.46 µM [rising, partial curve].
Regarding `CC1=NN(c2ccccc2)C(=O)/C1=C\N(O)c1ccccc1`, the AC50 under setting [1] was 15.8 µM [falling, single point].
Take `CCCC(=O)NC(=S)Nc1ccc(Cl)cn1`: the AC50 under setting [1] was 35.5 µM [falling, single point] and the AC50 under setting [2] was 35.5 µM [falling, single point].
For the compound `O=C(OCc1c(-c2ccccc2)ncc2ccccc12)c1ccccc1C(F)(F)F`, the half-maximal activity concentration (AC50) under setting [1] is 29.1 µM [falling, single point].
On to `CC1CCCN(c2nc(NCc3ccco3)nc(N)c2[N+](=O)[O-])C1` (stereo not drawn), for which the AC50 under setting [1] was 5.8 µM [rising, single point].
The same measure, in the same setting: next, `Cc1cc(C)c(OCCCCCn2ccnc2)c(C)c1`: 35.5 µM [rising, single point].
In the case of `Cc1ccc(NC(=S)N(CCCN2CCOCC2)Cc2ccco2)cc1C`, the AC50 under setting [1] is 35.5 µM [falling, single point].

(Values after PubChem BioAssay AID493014 (National Center for Advancing Translational Sciences (NCATS), 2011).)
